This note sets out measurements from PubChem BioAssay AID1487 (National Center for Advancing Translational Sciences (NCATS), 2009).

The structures appear in SMILES notation. This is one part of the list. These are further read-outs of the screen, such as a control signal, another cell line or another target. No call is given for them. Most of these compounds were active or inconclusive in the main read-out, so they are no random draw. The note in brackets gives the kind of curve behind each potency; many fits are weak.

The experiment in a line: qHTS Assay for Modulators of Lamin A Splicing. The settings on record: HeLa LMNA splicing GFP/RFP minigene ratio, 48 h. A digest of the protocol:
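S3 HeLa stable clones carrying a lamin A-EGFP splicing minigene plus DsRed2 were seeded at 600 cells/well in Opti-MEM with 2% FBS, pin-dosed and incubated 48 h at 37°C. Acumen cytometry (488 nm) gave the GFP/RFP total-intensity ratio.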
For orientation: In qHTS, concentration-response curves come from the screen itself.

[1] abbreviates: measured here: GFP splicing reporter channel.
The mark [2] stands for this setting: measured here: RFP viability control channel.

Usually AC50 stands for the concentration at which the activity in the assay is half-maximal. Take `O=c1oc2ccccc2c(Cl)c1CN1CCCCC1`: the AC50 under setting [1] is 1.41 µM [falling, partial curve, poor fit] and the AC50 under setting [2] is 0.708 µM [falling, partial curve].
With `COc1cccc(/C=N/Nc2nc(Nc3ccccc3)nc(-n3nc(C)cc3C)n2)c1O`, the half-maximal activity concentration (AC50) under setting [2] is 14.1 µM [rising, single point].
Consider `CCN1C(=O)C(CC(=O)Nc2cccc(C(C)=O)c2)S/C1=N\c1ccccn1` (stereo unspecified), for which the AC50 is 10 µM [rising, single point] under setting [1] and 11.2 µM [rising, single point] under setting [2].
Regarding `Cc1cccn2cc(COc3cccc([N+](=O)[O-])c3)nc12`, the AC50 was 35.5 µM [falling, single point] under setting [1] and 11.2 µM [falling, partial curve, poor fit] under setting [2].
`O=c1ccn(-c2ccccc2)[nH]1`: the AC50 under setting [1] was 35.5 µM [rising, partial curve, poor fit].
`CCOC(=O)N1CCN(C(=O)c2ccc(Cn3c(=S)[nH]c4cc5c(cc4c3=O)OCO5)cc2)CC1`: the AC50 under setting [2] was 14.1 µM [rising, partial curve].
The same measure, in the same setting: the result for `CCOc1ccc(-n2c(-c3ccc(OC)cc3)c[n+]3c2CCCCC3)cc1` reads 0.708 µM [rising, full curve, poor fit].
As to `CCOC(=O)CNC(=O)CNC(=O)c1nn(-c2ccc(OC)c(Cl)c2)c(=O)c2ccccc12`, the AC50 under setting [1] was 35.5 µM [rising, single point].
Consider `Cc1ccc(C)c(S(=O)(=O)N2CCC(c3nc4c(nnn4Cc4ccc(F)cc4)c(=O)[nH]3)CC2)c1`, for which the half-maximal activity concentration (AC50) by setting is: under setting [1], 35.5 µM [falling, single point]; under setting [2], 25.1 µM [falling, single point].
Regarding `COC(=O)c1ccccc1NC(=O)/C=C/c1ccco1`, under setting [1], the AC50 is 17.8 µM [falling, single point].
For the compound `Cc1ccc2c(c1)C1OCCC1C1N2C(=O)C2C(C(=O)O)C3C=CC21O3` (stereo unspecified), the AC50 under setting [2] was 35.5 µM [rising, partial curve].
For the compound `Clc1ccc(OCCSc2ncccn2)c2ccccc12`, the AC50 was 0.251 µM [rising, full curve, poor fit] under setting [1] and 14.1 µM [rising, partial curve] under setting [2].
Regarding `COc1cccc(CNC(=O)c2ccc(NC(=O)N3CCCCc4ccccc43)cc2)c1`, the AC50 under setting [1] is 0.01 µM [falling, full curve, poor fit] and the AC50 under setting [2] is 0.00501 µM [falling, full curve, poor fit].
Consider `COc1cc2c(cc1OC)n(CC(=O)c1ccc(F)cc1)c(=O)n1nc(CCn3nc(C)cc3C)nc21`, for which the AC50 runs as follows: under setting [1], 7.94 µM [rising, partial curve, poor fit]; under setting [2], 14.1 µM [rising, partial curve].
